Inconclusive results, whose numbers are uncertain, are shown with a selection of clear calls. For some of these results: Potencies beside an inconclusive call are fits to weak or partial responses and may not hold up. Activity calls are given as the source filed them. Unless noted, cut-off not given; nearly all actives show AC50 up to about 26 µM.
Tests used:
[1] = growth inhibition of DIPG glioma cells, dose response, cell-based, SU-DIPG-XVII, MIPE5.0, CellTiter-Glo, qHTS (AID 1347060); conditions: SU-DIPG-XVII viability, CellTiter-Glo ATP luminescence;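 further: cells exposed to compound for 48 hours before viability readout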
[2] = growth inhibition of DIPG glioma cells, dose response, cell-based, JHH-DIPG-1, MIPE4.0, CellTiter-Glo, qHTS (AID 1347062; cut-off not given, nearly all actives have AC50 up to about 27 µM;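 further: cells exposed to compound for two days before readout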); conditions: JHH-DIPG-1 viability, CellTiter-Glo ATP luminescence
[3] = growth inhibition of DIPG glioma cells, dose response, cell-based, SU-DIPG-IV, MIPE4.0, CellTiter-Glo, qHTS (AID 1347063; cut-off not given, nearly all actives have AC50 up to about 30 µM;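 further: compound exposure lasted 48 hours before the viability readout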); conditions: SU-DIPG-IV viability, CellTiter-Glo ATP luminescence
[4] = growth inhibition of DIPG glioma cells, dose response, cell-based, SU-DIPG-XIII, MIPE5.0, CellTiter-Glo, qHTS (AID 1347064; cut-off not given, nearly all actives have AC50 up to about 23 µM;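 further: cells exposed to compound for 48 hours before the viability read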); conditions: SU-DIPG-XIII viability, CellTiter-Glo ATP luminescence
[5] = SU-DIPG-VI glioma cell viability, MIPE4.0 library, CellTiter-Glo luminescence, qHTS (AID 1347066; cut-off not given, nearly all actives have AC50 up to about 30 µM;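 further: cells exposed to compound for 48 hours before readout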); conditions: CellTiter-Glo ATP luminescence
[6] = JHH-DIPG-1 glioma cell viability, MIPE5.0 library, CellTiter-Glo luminescence, qHTS (AID 1347067); conditions: JHH-DIPG-1 glioma viability, CellTiter-Glo ATP luminescence;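 further: cells exposed to compound for 48 hours before readout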
[7] = viability loss in pontine glioma line – cell-based, SU-DIPG-XXV, MIPE5.0, CellTiter-Glo, qHTS, dose response (AID 1347065); conditions: CellTiter-Glo ATP luminescence;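 further: cells exposed to compound for 48 hours before ATP readout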
[8] = SU-DIPG-XXV glioma cell viability, MIPE5.0 library, qHTS (AID 1347068; cut-off not given, nearly all actives have IC50 up to about 30 µM)

Structure (SMILES)	AC50 [1]	AC50 [2]	AC50 [3]	AC50 [4]	outcome [5]	AC50 [6]	AC50 [7]	outcome [6]	outcome [8]
CCCCCN=C(N)N/N=C/c1c[nH]c2ccc(OC)cc12	active: 13.2 µM	inconclusive: 6.62 µM [cytotoxic]	inconclusive: 1.18 µM [cytotoxic]	active: 13.2 µM	inactive	inconclusive: 1.05 µM [cytotoxic]	–	–	–
Nc1cccc(S(=O)(=O)N2CCCN(S(=O)(=O)c3ccc4c(c3)OCCO4)CC2)c1	inconclusive: 14.8 µM [cytotoxic]	inconclusive: 2.64 µM [cytotoxic]	inconclusive: 14.8 µM [cytotoxic]	inconclusive: 13.2 µM [cytotoxic]	–	inconclusive: 2.95 µM [cytotoxic]	inconclusive: 16.6 µM [cytotoxic]	–	–
CNC(=O)[C@H](Cc1ccccc1)NC(=O)[C@H](CC(C)C)[C@H](CSc1cccs1)C(=O)NO	inconclusive: 33.2 µM [cytotoxic]	inconclusive: 7.43 µM [cytotoxic]	inconclusive: 1.32 µM [cytotoxic]	inconclusive: 16.6 µM [cytotoxic]	–	–	inconclusive: 29.5 µM [cytotoxic]	inactive	inactive
O=C(C1CC1)N1CC[C@@H](Cn2c(-c3ccc(-c4ccc5occc5c4)cc3)nc3cnccc32)C1	inconclusive: 16.6 µM [cytotoxic]	inconclusive: 1.87 µM [cytotoxic]	inconclusive: 20.9 µM [cytotoxic]	inconclusive: 20.9 µM [cytotoxic]	inactive	inconclusive: 18.6 µM [cytotoxic]	–	–	–
